Results from the supplement of paper PMC10338343.
± gives the standard deviation. Some of the results follow. The uncertainty is large for many entries.

Each sequence was assayed on EfPiwi piRISC loaded with L1MC piRNA (26 nt) (assay: pre-steady-state target cleavage rate (min^-1); guide: L1MC piRNA 5'p-UAACUAAAUACUAUGCAAGCUGUAGG; MIWI and MILI are mouse PIWI proteins and EfPiwi is from a freshwater sponge; tags in brackets are library labels; higher = faster piRNA-guided slicing of the target). Conditions: auxiliary factor: 500 nM Ephydatia muelleri Gtsf1.
Outline: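 The pre-steady-state cleavage rate came from a burst-and-steady-state fit to pooled data from three Cleave-'n-Seq trials, in which uncleaved targets were sequenced and normalised to depth and to weakly complementary targets. Each reaction held 0.1 nM transcribed, DNA-blocked target RNA library and 1 nM active affinity-purified piRISC carrying one synthetic guide, with or without 500 nM GTSF1 partner protein, in HEPES–potassium acetate buffer at 33 °C for 0–8 or 0–960 min. k3 was capped at 0.0001 min^-1.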

| Sequence | pre-steady-state target cleavage rate |
| --- | --- |
| UCCUGCUACAGCUUGCAAAGUAUAUAGUUA | 0.00379 ± 0.0026 |
| UCCUGGAUGUCCUUGCAUAAUAUUUAGUUA | 0.00161 ± 0.0028 |
| UCCUGGAUCUGCUUGCAUAGUAUUUAGAAA | 0.00228 ± 0.0024 |
| UCCUGGAUGUGCUUCCAUACUAUUUAGUUA | 0.00132 ± 0.006 |
| UCCUGCUACAGCUUGCAUAGUAUGUAGUUA | 0.00311 ± 0.0014 |
| UCCUCCUACACGUUGCAUAGUAUUUAGUUA | 0.136 ± 0.035 |
| UCCUGGAUGUCGAAGCAUAGUAUUUGUUA | 0.000778 ± 0.0068 |
| UCCUCCUACAGCUUUGCAUAGUAUUUAGUUA | 0.123 ± 0.036 |
| UCCUCCUACACCUUGCAUAGUAUUUAGAUA | 0.004 ± 0.0023 |
| UCCUGGAUGUGCUUGCAUAGUAUUUACUUA | 0.00181 ± 0.0034 |
| UCCUCCUACAGCUUGCAUAGUAUUAAGAUA | 0.00411 ± 0.0022 |

A second format for part of the listing above.
Sequence,pre-steady-state target cleavage rate
UCCUGCUACAGCUUGCAAAGUAUAUAGUUA,0.00379 ± 0.0026
UCCUGCUACAGCUUGCAUAGUAUGUAGUUA,0.00311 ± 0.0014

Same assay, conditions: auxiliary factor: none (no Gtsf1)

| Sequence | pre-steady-state target cleavage rate |
| --- | --- |
| UCCUGGUACAGGUUGCAUAGAAUUUAGUUA | 0.000559 ± 0.017 |
| UCCUGGAUCAGCUUGCAUAGUUAAUAGUUA | 0.000682 ± 0.013 |
| UCCUGGAUGUGCUUGCAUAGUAUUUAGAAA | 0.000322 ± 0.026 |
| UCCUGCUACAGCAUGCAUAGAAUUUAGUUA | 0.000313 ± 0.024 |
| UCCUGGAUGUCGAACGUAAGUAAAUAGUUA | 0.000186 ± 0.025 |
